This is one part of the list.
These sequences were tested against OsWRKY34 (Oryza sativa, UniProt Q0JBA9 1-250) (assay: protein-binding microarray (RPBM); PBS, 2% BSA, 51.3 ng/ul salmon testes DNA, 50 uM zinc acetate, 200 nM TF, 25 C, 1 h; high values mean tight binding). Settings: protein: recombinant; tags: N-terminal polyhistidine and DsRed monomer fusion (pET32a); label: CyDye5-dUTP incorporated in the synthesized complementary strand; 3' TTTTT single-stranded linker to array surface; dsDNA, one strand shown.
Method in brief: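 For the binding signal, per-feature fluorescence intensity was read in arbitrary units on an Axon 4000B scanner. Before scanning, a 2% BSA-blocked custom Agilent array made double-stranded with Cy5-dUTP was washed after 1 h at 25 °C with 200 nM protein and 50 µM zinc acetate. The proteins were Ni–NTA-purified transcription factors with N-terminal polyhistidine and DsRed fusions, expressed in E. coli BL21-CodonPlus.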

By UniProt entry, the sequences of proteins in these tests, tags left out.
UniProt Q0JBA9, entry or part of it: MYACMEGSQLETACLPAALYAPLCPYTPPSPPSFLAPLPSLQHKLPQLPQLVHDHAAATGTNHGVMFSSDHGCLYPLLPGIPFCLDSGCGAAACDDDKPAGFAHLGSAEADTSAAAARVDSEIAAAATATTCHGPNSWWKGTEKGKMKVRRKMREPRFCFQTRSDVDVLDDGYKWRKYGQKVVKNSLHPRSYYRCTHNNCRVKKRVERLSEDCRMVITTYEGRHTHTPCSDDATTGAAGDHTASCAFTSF

Sequence	binding signal
TTCCGAGTTCCGACCCGCGCCGCCACGCCACGCTACATCCCGGAGTCACCTAGTGCAG	8170 fluorescence intensity (a.u.)
CCCACCCGCGCAACCGCCTCCTCCTCGCCGCCTCCGAGCTCGGAGTCACCTAGTGCAG	11600 fluorescence intensity (a.u.)
ACGTGGCTGGTTTAATTAGGTCCTTGTCCCACGTGATATTCGGAGTCACCTAGTGCAG	9250 fluorescence intensity (a.u.)
GCGCGCACGCATTCGCCTCGACGCCGCATACTCGCGTCCACGGAGTCACCTAGTGCAG	8990 fluorescence intensity (a.u.)
TGTACTGTACGTTCTCTTTGCGCGCACTGCACCATTTGTTCGGAGTCACCTAGTGCAG	8400 fluorescence intensity (a.u.)
TCTCCGCATCACTCACTACTCAACTAGCACTACTACTAGTCGGAGTCACCTAGTGCAG	9470 fluorescence intensity (a.u.)
ACCCAACCGACTCGCACTCGTCGTCGTCGTCCCCATCTGGCGGAGTCACCTAGTGCAG	8140 fluorescence intensity (a.u.)
ACGTTGCTTAATCTCCTTTAATTTCTTCTTTTTTTTCTCTCGGAGTCACCTAGTGCAG	10800 fluorescence intensity (a.u.)
TTCCACCGTCTCGTTTCGCAGACGACTCCTGCTCTGCCTCCGGAGTCACCTAGTGCAG	10200 fluorescence intensity (a.u.)
ACCACCACCACCACCTCCACCACCACCGCGCGCACCGGCACGGAGTCACCTAGTGCAG	8730 fluorescence intensity (a.u.)
TTTGTGCATTTATTATTATTATTCTTGTTTTTCTTTTTTTCGGAGTCACCTAGTGCAG	8340 fluorescence intensity (a.u.)
GGCTCCCGACGCTCACGCGCGCTCCGTGCTCTGCGCCTCCCGGAGTCACCTAGTGCAG	8190 fluorescence intensity (a.u.)
TTGTATCTAATTCGGTTTCTTTTGATTTGCAGGTTTAGGTCGGAGTCACCTAGTGCAG	8140 fluorescence intensity (a.u.)
AAAACCTTGATTATTCTCGCTGCGTGTATCCCATTCCCACCGGAGTCACCTAGTGCAG	9230 fluorescence intensity (a.u.)
TGGTATTCTTATCATGTCCATTGTTGACTTGCTCCTCAGACGGAGTCACCTAGTGCAG	9770 fluorescence intensity (a.u.)
GAGAGGGAGGGAGGGAGGAGGAGGAGGAGGAGGAGGAGGACGGAGTCACCTAGTGCAG	10500 fluorescence intensity (a.u.)
AGCACGAATCGATCTGATGACCTGTTCTCTTCTTCTATACCGGAGTCACCTAGTGCAG	8600 fluorescence intensity (a.u.)
GGTGACATGATTTAAGACCAATTGTGTACTTTTACTATTTCGGAGTCACCTAGTGCAG	8970 fluorescence intensity (a.u.)
TTTTCTCATATGTTTGACCATTCGTCTTATTCAAAAAATTCGGAGTCACCTAGTGCAG	9000 fluorescence intensity (a.u.)
AGCTATACTATTACCGTTTTCACTGCCAATAACCGGCGACCGGAGTCACCTAGTGCAG	8380 fluorescence intensity (a.u.)
GCGGATGGAATGGCAAGGGAGGAAACTGGTGGGGTGGGAGCGGAGTCACCTAGTGCAG	8960 fluorescence intensity (a.u.)
AAGTTCATCCCGCTGTATCTATTTTGATTTAGACTAGCTTCGGAGTCACCTAGTGCAG	8830 fluorescence intensity (a.u.)
ACAAATGACCACGATTTTTTACCTCCTCACCCTACTAGACCGGAGTCACCTAGTGCAG	8210 fluorescence intensity (a.u.)

Single entries from above.
binding signal, AAAACCTTGATTATTCTCGCTGCGTGTATCCCATTCCCACCGGAGTCACCTAGTGCAG reads 9230 fluorescence intensity (a.u.)
binding signal, AAGTTCATCCCGCTGTATCTATTTTGATTTAGACTAGCTTCGGAGTCACCTAGTGCAG reads 8830 fluorescence intensity (a.u.)
